From publication PMC3440354
For at least one entry, the source does not settle the construct or the ends of the probe. A weaker result is weaker than the reference pair of the same experiment. For some of these results: At least one verdict rests on a figure or table, not on a statement of the authors.

The sequences below were run on p53, C-terminus truncated, constitutively active (assay: competition with a labelled probe). Settings: 200-fold excess vs labeled consensus, sites 1-14 weak (text: weakly or not at all); EMSA: 0.5 ug p53, 25,000 cpm 32P probe, 20 min at room temperature; competitor 200-fold molar excess added 15 min before probe; salt and pH not given; recombinant protein; label: 32P 5' end (direct EMSA), unlabeled as ….
“AACCAAGCCTGACAGGTCGAGCCCTGGCTGTGTTTG (double strand) [Pax2 site 14]”: binds more weakly.
“AAGGAAGATAAGGCTACTGCGGTTACTACCACCTTAGAGCTTCTGGCTCC (double strand) [Pax2 site 2]”: binds more weakly.
“AGGCGTCTGGACTGCCCAGACTCCGGGGAGGGGGTGCGCGCCACCGCGTGTGGG (double strand) [Pax2 site 9]”: binds more weakly.
“CAGACATACCAAGACTTAACTTAAGCACACCCAACAAGAGTTCCTTTATG (double strand) [Pax2 site 1]”: binds more weakly.
“CCTGGGAAGGCATGCCTGAGTTTTCTGGAGCTACATAGAAATTAGACTATCACTAGCCCTCAT (double strand) [Pax2 site 5]”: binds more weakly.
“GAACTCAGCGCAAGGGTAGCCGAGTTAGGACAGGGGCTGCGGACTCGCGGGCGTCTGGGA (double strand) [Pax2 site 10]”: binds more weakly.
“GAATCTATTGCCTTTGTCTGACAAGTCATCCATCTCCCGG (double strand) [Pax2 site 12]”: binds more weakly.
“GCATCCTCTGTCACTGCCGCGGACAAGCCGCTGCGCACCGTCTCCC (double strand) [Pax2 site 8]”: binds more weakly.
“GGGAGCGAGTGCGGGCCAGGCTGCAGAGACTGGGCCAGCGGCT (double strand) [Pax2 site 7]”: binds more weakly.
“GGTTAGCAGACAGGATCTCTGCCTGCACTTTACTTATGCATGATCCGCC (double strand) [Pax2 site 13]”: binds more weakly.
“TGTGGCAGATACTTGCGTAAGTGCAACTTCAAAAGTG (double strand) [Pax2 site 6]”: binds more weakly.
“TTCTGGCTCCCCAGTATGGGAGCTGACCCTTTTAGGCTGA (double strand) [Pax2 site 3]”: binds more weakly.
“TTGATTATCTAGACCCAGAAACCAGCTGGAAAACTAAC (double strand) [Pax2 site 4]”: binds more weakly.
“TTGGCCGGTGGATGGCAGGGCTGGGCGAGTTAGGACTGAGAGCCTGGCTTCGGAGTGCCG (double strand) [Pax2 site 11]”: binds more weakly.

These sequences were tested on p53, C-terminus truncated, constitutively active (assay: EMSA). Settings: stated to show p53 binding, Pax2 sites weak; EMSA: 0.5 ug p53, 25,000 cpm 32P probe, 20 min at room temperature; competitor 200-fold molar excess added 15 min before probe; salt and pH not given; recombinant protein; label: 32P 5' end (direct EMSA), unlabeled as ….
“GCATCCTCTGTCACTGCCGCGGACAAGCCGCTGCGCACCGTCTCCC (double strand) [Pax2 site 8]”: binds more weakly.
“GGGAGCGAGTGCGGGCCAGGCTGCAGAGACTGGGCCAGCGGCT (double strand) [Pax2 site 7]”: binds more weakly.
